# From paper doi:10.1101/2023.01.23.525126
# These are yes or no findings as the source states them, for the method shown. In cells and extracts the contact can be indirect. Some entries that bind do so weakly or less than the wild type. Sequences can lack the tags named with a protein.
# T1: DRACC1 (Disordered Region And Coiled-Coil Domain 1; FAM81A), DRACC1-FLAG (mouse) (UniProt Q3UXZ6)
# T1 sequence: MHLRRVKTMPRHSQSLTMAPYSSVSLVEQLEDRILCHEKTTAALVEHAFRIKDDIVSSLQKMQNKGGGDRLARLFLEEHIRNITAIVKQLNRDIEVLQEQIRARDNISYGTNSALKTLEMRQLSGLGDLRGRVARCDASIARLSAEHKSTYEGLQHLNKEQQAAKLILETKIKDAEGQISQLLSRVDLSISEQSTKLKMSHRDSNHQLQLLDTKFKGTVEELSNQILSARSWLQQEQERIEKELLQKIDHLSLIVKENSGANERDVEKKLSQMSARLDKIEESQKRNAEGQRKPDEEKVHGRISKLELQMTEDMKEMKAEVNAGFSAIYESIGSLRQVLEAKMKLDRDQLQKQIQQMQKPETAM
# B1: DRACC1 (Disordered Region And Coiled-Coil Domain 1; FAM81A), DRACC1-FLAG (protein, UniProt Q3UXZ6 1-364)
# chain: T1 sequence
# B2: GFP-SynGAP (protein, UniProt Q9QUH6 1-1308)
# chain: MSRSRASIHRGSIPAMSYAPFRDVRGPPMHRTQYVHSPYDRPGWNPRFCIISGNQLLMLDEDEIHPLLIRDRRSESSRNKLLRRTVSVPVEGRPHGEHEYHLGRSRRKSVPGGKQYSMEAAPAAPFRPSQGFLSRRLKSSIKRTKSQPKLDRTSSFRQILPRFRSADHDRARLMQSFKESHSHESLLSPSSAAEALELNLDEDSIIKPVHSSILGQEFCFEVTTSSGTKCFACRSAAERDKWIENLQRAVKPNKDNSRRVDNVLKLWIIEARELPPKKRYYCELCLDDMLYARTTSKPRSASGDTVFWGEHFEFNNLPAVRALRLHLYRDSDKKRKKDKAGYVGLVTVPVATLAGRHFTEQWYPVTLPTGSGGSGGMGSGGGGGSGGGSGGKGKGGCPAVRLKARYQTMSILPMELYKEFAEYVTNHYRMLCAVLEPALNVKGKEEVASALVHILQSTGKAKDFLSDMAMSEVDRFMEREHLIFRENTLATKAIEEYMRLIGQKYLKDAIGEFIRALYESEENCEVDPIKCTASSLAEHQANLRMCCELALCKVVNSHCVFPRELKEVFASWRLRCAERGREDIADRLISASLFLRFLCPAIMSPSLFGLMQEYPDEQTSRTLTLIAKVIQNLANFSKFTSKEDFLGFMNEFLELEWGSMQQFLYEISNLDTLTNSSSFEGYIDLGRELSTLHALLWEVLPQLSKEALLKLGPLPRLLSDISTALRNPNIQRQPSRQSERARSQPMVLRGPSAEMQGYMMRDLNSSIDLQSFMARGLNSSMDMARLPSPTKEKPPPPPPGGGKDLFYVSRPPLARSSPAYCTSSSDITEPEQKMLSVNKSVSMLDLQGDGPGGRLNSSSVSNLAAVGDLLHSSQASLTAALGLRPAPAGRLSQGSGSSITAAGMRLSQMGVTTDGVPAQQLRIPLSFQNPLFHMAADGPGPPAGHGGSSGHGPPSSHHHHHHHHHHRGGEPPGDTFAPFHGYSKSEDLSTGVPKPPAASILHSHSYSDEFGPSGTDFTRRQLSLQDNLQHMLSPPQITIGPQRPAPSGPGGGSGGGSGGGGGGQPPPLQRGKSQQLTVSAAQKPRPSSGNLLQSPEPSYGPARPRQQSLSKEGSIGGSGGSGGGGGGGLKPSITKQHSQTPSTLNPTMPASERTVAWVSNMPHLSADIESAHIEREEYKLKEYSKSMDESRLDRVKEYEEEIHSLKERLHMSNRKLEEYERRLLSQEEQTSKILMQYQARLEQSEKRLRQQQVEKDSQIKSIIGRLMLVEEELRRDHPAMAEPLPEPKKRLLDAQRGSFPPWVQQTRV
# Target: T1, DRACC1 (Disordered Region And Coiled-Coil Domain 1; FAM81A), DRACC1-FLAG (mouse)
# Assay: co-IP
row,Binder,binding
1,B1,binds
2,B2,binds
